Measured values: publication PMC3040216
Results are given in words; binding and its absence hold for the method and conditions named. In cells and extracts the contact can be indirect. These calls come from enrichment with a bait or labelling near it, and not all partners need be listed. Where a sequence is shown, tags or fusion partners need not be part of it.

Biological target: T1, ERFAD-HA (UniProt Q8IWF2)
T1 sequence: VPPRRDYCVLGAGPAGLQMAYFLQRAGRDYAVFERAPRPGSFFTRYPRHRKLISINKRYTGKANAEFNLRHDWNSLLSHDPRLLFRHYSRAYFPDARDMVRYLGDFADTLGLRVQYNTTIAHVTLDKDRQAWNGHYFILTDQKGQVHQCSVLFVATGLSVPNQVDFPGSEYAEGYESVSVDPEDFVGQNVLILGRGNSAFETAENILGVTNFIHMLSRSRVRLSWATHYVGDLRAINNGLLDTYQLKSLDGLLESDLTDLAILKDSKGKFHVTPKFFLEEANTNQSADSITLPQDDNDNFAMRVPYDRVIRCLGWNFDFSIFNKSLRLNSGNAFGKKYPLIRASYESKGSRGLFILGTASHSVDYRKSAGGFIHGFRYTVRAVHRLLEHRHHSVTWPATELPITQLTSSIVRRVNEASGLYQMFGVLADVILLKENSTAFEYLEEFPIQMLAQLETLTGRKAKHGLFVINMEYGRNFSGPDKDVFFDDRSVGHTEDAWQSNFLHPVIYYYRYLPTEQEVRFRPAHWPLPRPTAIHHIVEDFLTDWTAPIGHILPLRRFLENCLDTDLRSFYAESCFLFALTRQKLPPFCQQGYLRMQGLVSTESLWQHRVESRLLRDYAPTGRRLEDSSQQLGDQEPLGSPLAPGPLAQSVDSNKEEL
Test: affinity purification with mass spectrometry; upscaled anti-HA co-IP from A11 cells, EndoH-treated sample, band excised from an SDS-PAGE gel, trypsin digestion, mass spectrometry

binding: binds
B1: ERp90 (endogenous) (protein, UniProt Q9P2K2 28-825)
chain: LPELSPQKYFSTLQPGKASLAYFCQADSPRTSVFLEELNEAVRPLQDYGISVAKVNCVKEEISRYCGKEKDLMKAYLFKGNILLREFPTDTLFDVNAIVAHVLFALLFSEVKYITNLEDLQNIENALKGKANIIFSYVRAIGIPEHRAVMEAAFVYGTTYQFVLTTEIALLESIGSEDVEYAHLYFFHCKLVLDLTQQCRRTLMEQPLTTLNIHLFIKTMKAPLLTEVAEDPQQVSTVHLQLGLPLVFIVSQQATYEADRRTAEWVAWRLLGKAGVLLLLRDSLEVNIPQDANVVFKRAEEGVPVEFLVLHDVDLIISHVENNMHIEEIQEDEDNDMEGPDIDVQDDEVAETVFRDRKRKLPLELTVELTEETFNATVMASDSIVLFYAGWQAVSMAFLQSYIDVAVKLKGTSTMLLTRINCADWSDVCTKQNVTEFPIIKMYKKGENPVSYAGMLGTEDLLKFIQLNRISYPVNITSIQEAEEYLSGELYKDLILYSSVSVLGLFSPTMKTAKEDFSEAGNYLKGYVITGIYSEEDVLLLSTKYAASLPALLLARHTEGKIESIPLASTHAQDIVQIITDALLEMFPEITVENLPSYFRLQKPLLILFSDGTVNPQYKKAILTLVKQKYLDSFTPCWLNLKNTPVGRGILRAYFDPLPPLPLLVLVNLHSGGQVFAFPSDQAIIEENLVLWLKKLEAGLENHITILPAQEWKPPLPAYDFLSMIDAATSQRGTRKVPKCMKETDVQENDKEQHEDKSAVRKEPIETLRIKHWNRSNWFKEAEKSFRRDKELGCSKVN
modifications: N-glycans (EndoH-sensitive)
